In this assay the target is T1, Flag-IKKi (UniProt Q14164).
T1 sequence: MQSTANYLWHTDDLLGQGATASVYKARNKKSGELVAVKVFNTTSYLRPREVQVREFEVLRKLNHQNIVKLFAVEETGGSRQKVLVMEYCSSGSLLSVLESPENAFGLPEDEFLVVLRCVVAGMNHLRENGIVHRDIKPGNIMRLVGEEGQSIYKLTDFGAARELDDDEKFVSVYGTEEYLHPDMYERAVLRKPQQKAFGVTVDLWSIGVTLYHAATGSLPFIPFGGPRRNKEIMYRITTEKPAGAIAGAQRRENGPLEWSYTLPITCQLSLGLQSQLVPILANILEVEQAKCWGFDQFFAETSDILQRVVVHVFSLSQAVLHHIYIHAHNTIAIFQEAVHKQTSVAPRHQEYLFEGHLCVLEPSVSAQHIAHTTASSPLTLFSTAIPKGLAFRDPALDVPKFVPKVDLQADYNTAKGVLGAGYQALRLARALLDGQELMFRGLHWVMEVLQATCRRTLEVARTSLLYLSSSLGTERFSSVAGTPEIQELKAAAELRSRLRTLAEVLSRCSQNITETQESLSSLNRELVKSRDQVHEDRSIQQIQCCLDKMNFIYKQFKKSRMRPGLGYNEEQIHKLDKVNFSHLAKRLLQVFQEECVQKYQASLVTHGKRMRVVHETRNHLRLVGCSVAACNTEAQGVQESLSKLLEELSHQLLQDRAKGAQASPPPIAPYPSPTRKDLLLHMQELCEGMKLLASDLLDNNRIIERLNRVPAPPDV
The assay is described as follows: co-IP.

These are yes or no findings as the source states them, for the method shown. Binding seen in cells or lysates may run through a third protein. Sequences can lack the tags named with a protein.

This is an account of results in paper PMC7537955.

Take “SARS-CoV-2 main protease (HA-M^pro) (enzyme)”: the binding result is reported as “no binding”.
